Data from patent publication US20120184613A1, “SULFUR-CONTAINING COMPOUND AND USE THEREOF” (SUMITOMO CHEMICAL COMPANY, LIMITED, priority 2008, published 2012).
Some of these results come from one statement about several compounds together.

Experiments:
[1] = tested on: Culex pipiens pallens; assay: Test Example 4: larvae in treated water, death rate of Culex pipiens pallens; type: in vivo; details: active ingredient concentration 3.5 ppm in water; 20 last-instar larvae; after 1 day
[2] = tested on: Musca domestica; assay: Test Example 2: filter paper with sucrose bait, death rate of Musca domestica; type: in vivo; details: 500 ppm test solution, 0.7 ml on filter paper; 10 female imagoes; after 24 hours

Row | SMILES | pest death rate [1] | pest death rate [2]
1 | CC(C)OCCS(=O)(=O)C(C#N)CCC(F)(F)C(F)(F)F (centres unmarked) [(3)] | ≥ 90% | ≥ 70%
2 | COC(C)(C)CS(=O)(=O)C(C#N)CCC(F)(F)C(F)(F)F (centres unmarked) [(4)] | ≥ 90% | ≥ 70%
3 | N#CC(CCC(F)(F)C(F)(F)F)S(=O)(=O)CCO (centres unmarked) [(5)] |  | ≥ 70%
